From doi:10.1101/2025.02.22.639565
Results are given in words; binding and its absence hold for the method and conditions named. In cells and extracts the contact can be indirect. Some entries that bind do so weakly or less than the wild type.

By UniProt entry, the sequences of proteins in these tests, tags left out.
UniProt P50750: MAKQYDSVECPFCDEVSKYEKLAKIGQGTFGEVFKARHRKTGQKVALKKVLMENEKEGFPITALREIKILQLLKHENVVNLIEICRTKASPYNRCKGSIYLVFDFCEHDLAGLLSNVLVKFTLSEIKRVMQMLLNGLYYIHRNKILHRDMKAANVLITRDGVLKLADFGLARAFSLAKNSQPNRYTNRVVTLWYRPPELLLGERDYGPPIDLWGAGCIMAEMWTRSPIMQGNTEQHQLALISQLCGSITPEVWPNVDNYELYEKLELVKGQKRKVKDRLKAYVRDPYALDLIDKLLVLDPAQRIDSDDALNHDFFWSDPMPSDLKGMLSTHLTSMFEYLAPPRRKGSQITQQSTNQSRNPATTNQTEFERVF
UniProt P46937: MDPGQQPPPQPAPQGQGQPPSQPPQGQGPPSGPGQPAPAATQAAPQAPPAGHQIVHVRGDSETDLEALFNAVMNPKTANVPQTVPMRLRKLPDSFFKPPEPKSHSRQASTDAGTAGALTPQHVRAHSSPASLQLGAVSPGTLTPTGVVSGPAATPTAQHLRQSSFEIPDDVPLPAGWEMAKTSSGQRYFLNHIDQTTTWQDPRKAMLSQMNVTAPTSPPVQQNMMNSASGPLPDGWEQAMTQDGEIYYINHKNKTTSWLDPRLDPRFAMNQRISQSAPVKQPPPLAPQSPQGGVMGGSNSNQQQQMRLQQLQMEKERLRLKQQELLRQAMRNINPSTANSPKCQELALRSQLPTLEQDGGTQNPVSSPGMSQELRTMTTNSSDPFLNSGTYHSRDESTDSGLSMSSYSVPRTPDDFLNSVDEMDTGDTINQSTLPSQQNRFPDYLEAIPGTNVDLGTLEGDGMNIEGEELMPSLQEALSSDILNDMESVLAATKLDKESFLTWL

Target: CDK9 (cyclin-dependent kinase 9) (human (endogenous in GA0518)) (UniProt P50750)
Assay: co-IP

## YAP1 (Yes-associated protein) (from UniProt P46937 1-504)
  binding: binds
